Test results: patent publication US8969612B2, “Low interfacial tension surfactants for petroleum applications” (Soane Energy, LLC, priority 2009, dated 2015)

Legend:
[1] = Surfactant switchability by pH variation: emulsion phase volume (Example 16); assay type: physicochemical
[2] = Surfactant stability: emulsion phase volume over time (Example 15); assay type: physicochemical; conditions: 2 mL heavy oil + 2 mL 1% surfactant solution
[3] = no acid (pH 9 test surfactant, pH 6 Tergitol)

2-(nonen-1-yl)succinic acid mono (2-cyclohexylethyl) ester [Example 3]
% mixture volume occupied by emulsion, 5 min ([1]; acid added (HCl 10M), pH 1): 0%
% mixture volume occupied by emulsion, 30 min ([1]; acid added (HCl 10M), pH 1): 0%
% mixture volume occupied by emulsion, 60 min ([1]; acid added (HCl 10M), pH 1): 0%
% mixture volume occupied by emulsion, 1 day ([1]; acid added (HCl 10M), pH 1): 0%
% mixture volume occupied by emulsion, 5 min [1, 3]: 100%
% mixture volume occupied by emulsion, 30 min [1, 3]: 99%
% mixture volume occupied by emulsion, 60 min [1, 3]: 93%
% mixture volume occupied by emulsion, 1 day [1, 3]: 43%
% mixture volume occupied by emulsion, 5 min ([2]; 5 min after mixing): 93%
% mixture volume occupied by emulsion, 30 min ([2]; 30 min after mixing): 79%
% mixture volume occupied by emulsion, 60 min ([2]; 60 min after mixing): 64%
% mixture volume occupied by emulsion, 1 day ([2]; 1 day after mixing): 36%
